Assay results from PubChem BioAssay AID504834 (National Center for Advancing Translational Sciences (NCATS), 2011).
The campaign covered roughly 320,000 compounds. About 22,000 (6.9%) were called active. Inconclusive results, whose numbers are uncertain, are shown with a selection of clear calls. Calls follow the shape of the dose curve; as a rule, active = well fitted inhibition curve with a large enough effect; inconclusive = small, poorly fitted or top-dose-only effect, or another doubt; inactive = no such curve, though single readings can be large or run the other way. Potencies of inconclusive entries are doubtful fits and often do not repeat.

Assay: Primary qHTS for delayed death inhibitors of the malarial parasite plastid, 96 hour incubation
Details: P. falciparum luciferase reporter growth; series mostly up to 28.7 µM
How it was run: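 Erythrocytes infected with luciferase-expressing P. falciparum were dispensed at 2% hematocrit and 0.05% parasitemia (final), then incubated with compounds 96 hours at 37 C in 5% CO2. Luminescence after detection reagent addition reported growth.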
Potency is read from the fitted curve at half-maximal effect.

Compound | Potency
O=C1OC(c2ccc3c(c2)OCO3)=N/C1=C\c1ccc(C(=O)O)cc1 | inactive
CCOc1cc(-c2nnc(NC(=O)C3=COCCO3)o2)cc(OCC)c1OCC | inconclusive: 16.5 µM [inhibitor, partial curve, poor fit]
Cc1cc(C)cc(NC(=S)N(CCN(C)C)Cc2cccs2)c1 | inconclusive: 18.5 µM [inhibitor, single point]
Cn1c(CNC(=O)Nc2cccc(Cl)c2)nnc1SCc1ccccc1 | active: 13.1 µM
CC(c1ncncc1F)[C@](O)(Cn1cncn1)c1ccc(F)cc1F (some centres not stated) | inconclusive: 19 µM [inhibitor, partial curve, poor fit]
O=C(O)c1ccc2c(c1)C(=O)N([C@@H](C(=O)O)C(c1ccccc1)c1ccccc1)C2=O | inactive
O=C(CCN1C(=O)C2C3CCC(C3)C2C1=O)OCC(=O)c1ccccc1 (configuration not stated) | inconclusive: 18.5 µM [inhibitor, single point]
COc1cc(O)c(C(CCN2CCCC(C)C2)c2ccc3c(c2)OCO3)c(OC)c1 (configuration not stated) | active: 0.586 µM
CC1CCN(c2ccc(C=O)o2)CC1 | active: 0.233 µM
CCOC(=O)c1oc2ccccc2c1CN1CCN(C)CC1 | active: 13.1 µM
O=C(CSc1ccccn1)Nc1ccc(F)c([N+](=O)[O-])c1 | inconclusive: 0.0074 µM [inhibitor, partial curve, poor fit]
CN(C)CCNc1nc2sc3c(c2c(=O)n1Cc1ccccc1)CCCCC3 | inconclusive: 10.4 µM [inhibitor, single point]
CC(Cl)C(=O)Nc1ccccc1C#N (configuration not stated) | inactive
CCCn1nc(NC(=O)c2ccncc2)c2cc3ccccc3nc21 | inconclusive: 18.5 µM [inhibitor, single point]
O=C(CSC1=NCCS1)c1ccc(Cl)cc1 | inconclusive: 18.5 µM [inhibitor, single point]
Cc1nonc1OCCN1CCN(c2ccccc2[N+](=O)[O-])CC1 | inactive
CC(C)CNC(=S)N1CCC(c2nc(-c3ccc(F)cc3)no2)CC1 | inconclusive: 11.7 µM [inhibitor, single point]
CCN(CC)CCCNC(=O)c1nn(-c2ccccc2OC)c(=O)c2ccccc12 | inactive
S=C(NCc1ccccc1)NCc1ccccc1Cl | inconclusive: 18.5 µM [inhibitor, single point]
Cc1nc(Oc2ccc(S(=O)(=O)N3CCOCC3)cc2Cl)c2c3c(sc2n1)CCCC3 | active: 13.1 µM
CC(C)(C)OC(=O)NCCC(=O)N/N=C/c1cccc2nccnc12 | inconclusive: 13.1 µM [inhibitor, single point]
Cc1ccc(-n2c(=O)c3c4c(sc3n(Cc3cc(=O)n5ccccc5n3)c2=O)CCC4)cc1C | inconclusive: 14.7 µM [inhibitor, single point]
CCn1c2c(c3cc(Cl)ccc31)CCCC2=O | inconclusive: 3.29 µM [inhibitor, partial curve, poor fit]
COc1ccc(OC)c(C2CC(c3ccccc3)=NN2C(=S)Nc2ccccc2)c1 (configuration not stated) | inconclusive: 16.5 µM [inhibitor, single point]

Compound | Potency
CN1CCC(=O)N([C@H](CSc2ccc(Br)cc2)Cc2ccccc2)CC1 | active: 3.29 µM
CCc1ccc(S(=O)(=O)Nc2ccc(-c3ccc4nnc(C)n4n3)cc2)s1 | inconclusive: 18.5 µM [inhibitor, single point]
CCOC(=O)N1CCC(NC(=O)c2ccc3c(c2)sc2nc(-c4ccc(OC)cc4)cn23)CC1 | inactive
COc1ccc(C2NC(=O)CS2)cc1OC (configuration not stated) | inactive
NC(=O)c1ccc(NC(=O)COC(=O)c2c3c(nc4ccccc24)/C(=C\c2ccc4c(c2)OCO4)CCC3)cc1 | inconclusive: 18.5 µM [inhibitor, single point]
CC(CCn1cccn1)NC(=O)c1cc(COc2ccc(F)cc2F)on1 (configuration not stated) | inconclusive: 18.5 µM [inhibitor, single point]
O=C(COC(=O)c1ccccc1NC(=O)c1ccco1)Nc1ccc2c(c1)OCO2 | inactive
COC(=O)CNC(=O)c1sc2ncn(CC(=O)Nc3ccc(C)c(Cl)c3)c(=O)c2c1C | inconclusive: 1.65 µM [inhibitor, full curve, poor fit]
CCn1c(-c2c(Cl)c(C)nn2C)n[nH]c1=S | inconclusive: 10.4 µM [inhibitor, single point]
CC(=O)N1CCN(CCN=CC2=C(O)CC(c3cccs3)CC2=O)CC1 (configuration not stated) | inactive
Cc1cccnc1CC(C)NC(=O)c1cc(COc2cncc(Cl)c2)on1 (configuration not stated) | inconclusive: 18.5 µM [inhibitor, single point]
COc1ccc(-c2cn3cccc(C)c3n2)cc1F | inconclusive: 2.33 µM [inhibitor, full curve, poor fit]
Cn1c(=O)n(C)c2cc([N+](=O)[O-])c(N3CCN(C(=O)c4cccc(Cl)c4)CC3)cc21 | inconclusive: 18.5 µM [inhibitor, single point]
CCN(Cc1cccc(OC)c1)CC1CCCN(CCc2cccc(OC)c2)C1 (configuration not stated) | inconclusive: 13.1 µM [inhibitor, partial curve, poor fit]
Cc1csc(NC(=O)CCSCCc2ccccn2)n1 | active: 9.28 µM
COc1cccc(NC(=O)NC2CCCc3ccccc32)c1 (configuration not stated) | inconclusive: 14.7 µM [inhibitor, single point]
Cc1sc(NC(=O)CN2CCN(c3ccccn3)CC2)c(C#N)c1C | inconclusive: 10.4 µM [inhibitor, single point]
CC1(NC(=O)Nc2cccc3ccccc23)CCS(=O)(=O)C1 (configuration not stated) | inactive
COC(=O)c1sc(N2C(=O)C(O)=C(C(=O)c3ccc(C)o3)C2c2ccc([N+](=O)[O-])cc2)nc1C (configuration not stated) | inactive
O=C(OCN1C(=O)c2ccccc2C1=O)c1ccco1 | inconclusive: 8.28 µM [inhibitor, partial curve, poor fit]
CCCCn1c(SCC(=O)NCCc2ccc(OC)c(OC)c2)nc2c1c(=O)n(C)c(=O)n2C | inconclusive: 0.104 µM [inhibitor, full curve, poor fit]
CCc1sc(C(=O)Nc2ccsc2C(=O)OC)cc1Br | inactive
Nc1ccc(-c2ncc(-c3ccccc3)o2)cc1 | inconclusive: 1.04 µM [inhibitor, partial curve]
COc1ccc(Nc2nn3c(=O)c4ccccc4nc3s2)cc1 | inconclusive: 0.0522 µM [activator, full curve, poor fit]

Compound | Potency
Cc1ccc(NC(=O)CCc2c(C)nn(-c3ccc(N4CCOCC4)nn3)c2C)cc1 | inconclusive: 5.22 µM [inhibitor, partial curve]
C=CCc1c(C)nc(-c2ccccc2)nc1Nc1ccc(O)cc1 | inconclusive: 18.5 µM [inhibitor, single point]
COc1ccccc1N1Cc2ccccc2C1 | inconclusive: 8.28 µM [inhibitor, partial curve, poor fit]
C/C(CC(=O)NCc1ccccc1)=N\NC(N)=S | inconclusive: 4.65 µM [inhibitor, partial curve]
Cc1cc(C)n2nc(SCCCC(=O)c3ccc(F)cc3)nc2n1 | inconclusive: 11.7 µM [inhibitor, partial curve, poor fit]
CC1CN(c2nc(Nc3ccccc3)nc(N)c2[N+](=O)[O-])CC(C)O1 (configuration not stated) | inconclusive: 20.8 µM [inhibitor, partial curve, poor fit]
COc1ccccc1CNc1nc(-c2cc(C)n(C)c2C)cs1 | inactive
Cc1ccc(C(=O)NC(=S)N2CC(C)OC(C)C2)cc1[N+](=O)[O-] (configuration not stated) | inconclusive: 11.7 µM [inhibitor, single point]
O=C(COc1ccc(F)cc1Cl)Nc1cccc(S(=O)(=O)N2CCCC2)c1 | inconclusive: 18.5 µM [inhibitor, single point]
CN(c1ccccc1)S(=O)(=O)c1cccc(NC(=O)CCN2C(=O)C3CCCCC3C2=O)c1 (configuration not stated) | inconclusive: 8.28 µM [inhibitor, partial curve, poor fit]
COc1ccc(/C(C)=N/Nc2ccc(C(=O)O)cc2)cc1OC | inactive
CC1CCN(S(=O)(=O)N2CCC(C(=O)NC3CCCC3)CC2)CC1 | inconclusive: 18.5 µM [inhibitor, single point]
COCCN(CC(=O)Nc1ccccc1)S(=O)(=O)c1ccc(S(=O)(=O)N2CCCC2)cc1 | inactive
Cn1c(SCc2ccccc2Cl)nc2ccccc21 | inactive
Cn1c(=O)oc2cc(S(=O)(=O)N3CCc4ccccc43)ccc21 | inactive
CCC1CCCCN1C(=O)c1cc2cc(Br)ccc2oc1=O (configuration not stated) | inconclusive: 9.28 µM [inhibitor, partial curve, poor fit]
CC(C)(C)C(=O)COC(=O)c1ccc(O)cc1 | inactive
Cc1ccc(-c2nnc(SCC(=O)Nc3ccccc3F)o2)cc1 | inconclusive: 9.28 µM [inhibitor, single point]
COc1ccccc1NC(=O)C1CC(O)CN1C(=O)Oc1ccccc1 (configuration not stated) | inactive
COC(=O)c1cn(C)c2ccc(S(=O)(=O)N3CCCCC3)cc2c1=O | inconclusive: 10.4 µM [inhibitor, partial curve]
O=C(Cc1ccc(Cl)cc1)N1CCOCC1 | active: 14.7 µM
CCOC(=O)Cc1csc(NC(=S)NC(=O)CC(C)C)n1 | inactive
Cn1nnnc1Sc1ncnc2scc(-c3ccc(C(F)(F)F)cc3)c12 | inconclusive: 1.85 µM [inhibitor, full curve, poor fit]
CC(=O)c1c(C)nc2ccc(C)cc2c1-c1ccccc1 | inconclusive: 18.5 µM [inhibitor, single point]

As a short view, some entries already given:
Compound | Potency
CCc1ccc(S(=O)(=O)Nc2ccc(-c3ccc4nnc(C)n4n3)cc2)s1 | inconclusive: 18.5 µM [inhibitor, single point]
CCOC(=O)N1CCC(NC(=O)c2ccc3c(c2)sc2nc(-c4ccc(OC)cc4)cn23)CC1 | inactive
COc1ccc(C2NC(=O)CS2)cc1OC (configuration not stated) | inactive
